Source: PubChem BioAssay AID330 (DTP/NCI, 2004)
The list does not hold the whole screen: it gathers tests that were run many times, whatever their T/C, doses with no T/C, and many T/C values between a quarter and a half above the control. Further doses and runs are listed elsewhere. T/C: endpoint of the treated group in % of that of the vehicle group. Some doses have a count of surviving animals in place of a T/C: the source holds a T/C of zero for them, seemingly a mark for toxic or unscored doses. Some survivor counts are full or nearly so, which does not show that the dose was tolerated: the source hardly ever lists a survival T/C far under the control, and the zero likely stands for such cases as well. Counts of survivors are from the toxicity check (mostly the fifth day) where no day follows; animals may have died later. Schedule codes are those of the source, read here as Q, the interval in days (D) or hours (H), X, the number of doses. Marks such as (2×) say how often a value occurs here. For survival time, the PubChem record calls one and a half times the control and up active, and a quarter to a half above the control has no call in these data; cut-offs in other NCI protocols can differ. Some entries were tested several times; their values stand side by side, smallest first.

Test system: P388 leukemia ip, CD2F1 mice, survival T/C
Experiment: NCI In Vivo Anticancer Drug Screen. Data for tumor model P388 Leukemia (intraperitoneal) in CD2F1 (CDF1) mice
Details: T/C endpoint: median survival time, higher T/C = longer survival
[1] = dose: 200.0 mg/kg/injection, schedule: Q01DX001 (ip), vehicle: Klucel (hydroxypropylcellulose) (HPC)
[2] = dose: 240.0 mg/kg/injection, schedule: Q01DX005 (ip), vehicle: Klucel (hydroxypropylcellulose) (HPC)
[3] = dose: 100.0 mg/kg/injection, schedule: Q01DX005 (ip), vehicle: saline with Tween-80
[4] = dose: 200.0 mg/kg/injection, schedule: Q01DX009 (ip), vehicle: saline with Tween-80
[5] = dose: 200.0 mg/kg/injection, schedule: Q01DX005 (ip), vehicle: saline with Tween-80
[6] = dose: 200.0 mg/kg/injection, schedule: Q01DX009 (ip), vehicle: saline
[7] = dose: 200.0 mg/kg/injection, schedule: Q01DX005 (ip), vehicle: Klucel (hydroxypropylcellulose) (HPC)
[8] = dose: 25.0 mg/kg/injection, schedule: Q01DX005 (ip), vehicle: saline with Tween-80
[9] = dose: 50.0 mg/kg/injection, schedule: Q01DX005 (ip), vehicle: saline with Tween-80
[10] = dose: 60.0 mg/kg/injection, schedule: Q01DX005 (ip), vehicle: saline with Tween-80
[11] = dose: 120.0 mg/kg/injection, schedule: Q01DX005 (ip), vehicle: saline with Tween-80
[12] = dose: 240.0 mg/kg/injection, schedule: Q01DX005 (ip), vehicle: saline with Tween-80
[13] = dose: 200.0 mg/kg/injection, schedule: Q04DX003 (ip), vehicle: saline with Tween-80
[14] = dose: 400.0 mg/kg/injection, schedule: Q04DX003 (ip), vehicle: saline with Tween-80

In the case of `C=C1C(C)C2C(Cc3ccccc3)NC(=O)C23C(OC(C)=O)C=CC(C)(O)C(=O)C(C)C/C=C/C3C1O` (configuration not stated), the T/C (dose: 10.0 mg/kg/injection, schedule: Q01DX009 (ip), vehicle: Klucel (hydroxypropylcellulose) (HPC)) is reported as 139 % of control.
In the case of `O=c1oc2cccc(O)c2s1`, the survivor count (dose: 100.0 mg/kg/injection, schedule: Q01DX001 (ip), vehicle: Klucel (hydroxypropylcellulose) (HPC)) is reported as 0 of 6 and the survivor count [1] is reported as 0 of 6.
`Cc1[nH]c2ccccc2c1-c1cc(-c2cc(-c3c(C)[nH]c4ccccc34)nc(N)n2)nc(N)n1` was tested, and the survivor count [2] was 2 of 6.
For `O=[N+]([O-])c1ccc2c(c1)c(S(=O)(=O)O)cc1nonc12`, the survivor count [3] was 5 of 5.
With `C1=Cc2cc(CN3CCOCC3)ccc2Nc2ccccc21` the survivor count [2] was 6 of 6.
With `Cc1ccc(CN(S(=O)(=O)c2ccc(C)cc2)S(=O)(=O)c2ccc(C)cc2)cc1` the survivor count (dose: 400.0 mg/kg/injection, schedule: Q01DX009 (ip), vehicle: saline with Tween-80) was 5 of 6.
In the case of `NC1C(=O)Nc2ccccc21` (configuration not stated), the survivor count (dose: 240.0 mg/kg/injection, schedule: Q01DX005 (ip), vehicle: saline) is reported as 1 of 6.
`O=[N+]([O-])c1ccccc1OCC(O)CCl` (configuration not stated) was tested, and the survivor count [4] was 2 of 6.
With `S=C=Nc1ccc(-c2csc(Nc3ccnc4cc(Cl)ccc34)n2)cc1` the survivor count [5] was 1 of 6.
`CSC(=S)N/N=C(/C)c1ccco1` was tested, and the survivor count [4] was 3 of 6.
For `CC1CN1P(=O)(OCCC#N)N1CC1C` (configuration not stated), the T/C (dose: 50.0 mg/kg/injection, schedule: Q01DX009 (ip), vehicle: other) was 140 % of control, the T/C (dose: 100.0 mg/kg/injection, schedule: Q04DX003 (ip), vehicle: other) was 136 % of control and the T/C (dose: 200.0 mg/kg/injection, schedule: Q01DX009 (ip), vehicle: other) was 125 % of control.
`C=Cn1ccnc1` was tested, and the T/C (dose: 25.0 mg/kg/injection, schedule: Q01DX009 (ip), vehicle: saline) was 126 % of control and the survivor count [6] was 5 of 6.
In the case of `Cc1ccc(S(=O)(=O)OCCOCCOc2ccc3ccccc3c2-c2c(OCCOS(=O)(=O)c3ccc(C)cc3)ccc3ccccc23)cc1`, the survivor count (dose: 400.0 mg/kg/injection, schedule: Q01DX001 (ip), vehicle: saline with Tween-80) is reported as 0 of 6.
With `CCc1nc(N)nc(N)c1-c1ccc(N(C)C)c(N)c1` the survivor count [7] was 0 of 6.
For `CCOCCC(O)CC` (configuration not stated), the T/C (dose: 400.0 mg/kg/injection, schedule: Q04DX003 (ip), vehicle: saline) was 136 % of control.
`ClC1CCC[N-]C1.ClC1CCC[N-]C1.[Cl][Pt+2][Cl]` (configuration not stated) was tested, and the T/C (dose: 25.0 mg/kg/injection, schedule: Q01DX009 (ip), vehicle: Klucel (hydroxypropylcellulose) (HPC)) was 125 % of control and the survivor count (dose: 100.0 mg/kg/injection, schedule: Q01DX009 (ip), vehicle: Klucel (hydroxypropylcellulose) (HPC)) was 6 of 6.
`O=c1c2ccccc2sc2cccc(NCCN3CCC(C4CCN(CCNc5cccc6sc7ccccc7c(=O)c56)CC4)CC3)c12` was tested, and the survivor count [8] was 6 of 6 (2×) and the survivor count [9] was 6 of 6.
With `Cc1nc(-c2ccccc2)nc2c1nc(C(C)C)n2Nc1ccccc1` the survivor count [5] was 6 of 6.
With `Oc1cc2c3c(c1)-c1c(ccc(O)c1O)CC3NCC2` (configuration not stated) the survivor count (dose: 100.0 mg/kg/injection, schedule: Q04DX003 (ip), vehicle: DMSO) was 4 of 6.
In the case of `CC#CCOCC(O)CO` (configuration not stated), the T/C (dose: 100.0 mg/kg/injection, schedule: Q01DX009 (ip), vehicle: water) is reported as 130 and 131 % of control, the T/C (dose: 150.0 mg/kg/injection, schedule: Q01DX009 (ip), vehicle: water) is reported as 141 % of control and the survivor count (dose: 200.0 mg/kg/injection, schedule: Q01DX009 (ip), vehicle: water) is reported as 3 of 6.
With `CNC(=O)OCc1c(COC(=O)NC)c(-c2ccco2)n2c1CCC2` the survivor count [10] was 0 of 6, the survivor count [11] was 0 of 6 and the survivor count [12] was 0 of 6.
With `N=c1ccn2c(n1)OC1C(O)C(COS(=O)OC3C(CO)OC4C3Oc3nc(=N)ccn34)OC12` (configuration not stated) the T/C (dose: 50.0 mg/kg/injection, schedule: Q01DX009 (ip), vehicle: saline with Tween-80) was 131 % of control and the T/C (dose: 100.0 mg/kg/injection, schedule: Q01DX009 (ip), vehicle: saline with Tween-80) was 140 % of control.
For `N#CCc1ccc(C(C#N)C(=O)CCC(=O)C(C#N)c2ccc(CC#N)cc2)cc1` (configuration not stated), the survivor count [5] was 0 of 6.
For `CSc1nc(NC2OCC(O)C(O)C2O)c(C=O)c(=O)[nH]1` (configuration not stated), the survivor count [11] was 5 of 6 and the survivor count [12] was 3 of 6.
In the case of `O=CC(O)C(O)C(O)COc1cc(CO)cc2c1C(=O)c1ccccc1C2=O` (configuration not stated), the survivor count [7] is reported as 2 of 5.
With `N#CC12c3ccccc3C(c3ccccc31)C1C(=O)C=CC(=O)C12` (configuration not stated) the survivor count (dose: 100.0 mg/kg/injection, schedule: Q01DX009 (ip), vehicle: saline) was 6 of 6 and the survivor count [6] was 6 of 6.
`COc1cc(C/C(=C\c2cc(OC)c(OC)c(OC)c2)[N+](=O)[O-])ccc1OCc1ccccc1` was tested, and the survivor count [1] was 6 of 6.
`O=C1Nc2ccccc2/C1=N\N=c1/scc(-c2ccccc2)n1-c1ccccc1` was tested, and the survivor count [11] was 6 of 6.
In the case of `COC(=O)CC1(C(=O)OC)c2sc(-c3ccccc3)c(-c3ccccc3)c2N2CCCC21` (configuration not stated), the survivor count (dose: 90.0 mg/kg/injection, schedule: Q01DX009 (ip), vehicle: Klucel (hydroxypropylcellulose) (HPC)) is reported as 5 of 5.
`CN1CCC/C1=C/C(=O)c1cccc([N+](=O)[O-])c1` was tested, and the survivor count (dose: 400.0 mg/kg/injection, schedule: Q04DX003 (ip), vehicle: Klucel (hydroxypropylcellulose) (HPC)) was 3 of 6.
`N#CN(Cc1ccccc1)Cc1ccccc1.[Br][Sn]([c]1ccccc1)([c]1ccccc1)[c]1ccccc1` was tested, and the survivor count (dose: 12.5 mg/kg/injection, schedule: Q01DX005 (ip), vehicle: saline with Tween-80) was 3 of 6, the survivor count [8] was 1 of 6 and the survivor count [9] was 0 of 6. The survivor count [3] was 0 of 6 and the survivor count [5] was 0 of 6.
In the case of `O=c1cccccc1Cl`, the survivor count [4] is reported as 0 of 6.
With `COc1ccc2c(c1)C(Cc1ccc(Oc3ccc(CC4c5cc(OC)ccc5CC[N+]4(C)C)cc3)cc1)[N+](C)(C)CC2` (configuration not stated) the survivor count (dose: 3.13 mg/kg/injection, schedule: Q04DX003 (ip), vehicle: water) was 6 of 6, the survivor count (dose: 6.25 mg/kg/injection, schedule: Q04DX003 (ip), vehicle: saline with Tween-80) was 0 of 6 and the survivor count (dose: 6.25 mg/kg/injection, schedule: Q04DX003 (ip), vehicle: water) was 0 of 6. The survivor count (dose: 12.5 mg/kg/injection, schedule: Q04DX003 (ip), vehicle: saline with Tween-80) was 0 of 6, the survivor count (dose: 25.0 mg/kg/injection, schedule: Q04DX003 (ip), vehicle: saline with Tween-80) was 0 of 6 and the survivor count (dose: 50.0 mg/kg/injection, schedule: Q04DX003 (ip), vehicle: saline with Tween-80) was 0 of 6. For the same compound, the survivor count (dose: 100.0 mg/kg/injection, schedule: Q04DX003 (ip), vehicle: saline with Tween-80) was 0 of 6, the survivor count [13] was 0 of 6 and the survivor count [14] was 0 of 6.
In the case of `CCOC(=O)c1cc2c(ccn2OC)[nH]1`, the T/C [13] is reported as 128 % of control and the survivor count [14] is reported as 2 of 6.
In the case of `CCCCCCC1([N+](=O)[O-])CN(C)CC2CCCCN2C1` (configuration not stated), the survivor count (dose: 400.0 mg/kg/injection, schedule: Q04DX002 (ip), vehicle: saline) is reported as 0 of 6.
With `CN(C)CCn1c2nc(=O)[nH]c(=O)c-2nc2ccccc21` the survivor count (dose: 100.0 mg/kg/injection, schedule: Q01DX005 (ip), vehicle: Klucel (hydroxypropylcellulose) (HPC)) was 3 of 6 and the survivor count [7] was 0 of 6.
`CCC[CH2][Sn]([CH2]CCC)([CH2]CCC)[CH2]CCCNCCCN(C)C` was tested, and the survivor count [6] was 0 of 6.
For `O=C(N=C1SC(=NC2CCCCC2)N1C1CCCCC1)c1ccccc1`, the survivor count (dose: 400.0 mg/kg/injection, schedule: Q01DX001 (ip), vehicle: Klucel (hydroxypropylcellulose) (HPC)) was 0 of 6.
With `Cc1cccc(C)c1NC(=O)Nc1cccc(C#N)c1` the survivor count [10] was 6 of 6 and the survivor count [11] was 6 of 6.
